Experimental data as given in publication doi:10.1101/679803.
Results are given in words; binding and its absence hold for the method and conditions named. Where a sequence is shown, tags or fusion partners need not be part of it.

The chains behind the UniProt entries cited, without tags or fusion partners. Residues count along the entry.
UniProt C0LGT6, residues 25-1031: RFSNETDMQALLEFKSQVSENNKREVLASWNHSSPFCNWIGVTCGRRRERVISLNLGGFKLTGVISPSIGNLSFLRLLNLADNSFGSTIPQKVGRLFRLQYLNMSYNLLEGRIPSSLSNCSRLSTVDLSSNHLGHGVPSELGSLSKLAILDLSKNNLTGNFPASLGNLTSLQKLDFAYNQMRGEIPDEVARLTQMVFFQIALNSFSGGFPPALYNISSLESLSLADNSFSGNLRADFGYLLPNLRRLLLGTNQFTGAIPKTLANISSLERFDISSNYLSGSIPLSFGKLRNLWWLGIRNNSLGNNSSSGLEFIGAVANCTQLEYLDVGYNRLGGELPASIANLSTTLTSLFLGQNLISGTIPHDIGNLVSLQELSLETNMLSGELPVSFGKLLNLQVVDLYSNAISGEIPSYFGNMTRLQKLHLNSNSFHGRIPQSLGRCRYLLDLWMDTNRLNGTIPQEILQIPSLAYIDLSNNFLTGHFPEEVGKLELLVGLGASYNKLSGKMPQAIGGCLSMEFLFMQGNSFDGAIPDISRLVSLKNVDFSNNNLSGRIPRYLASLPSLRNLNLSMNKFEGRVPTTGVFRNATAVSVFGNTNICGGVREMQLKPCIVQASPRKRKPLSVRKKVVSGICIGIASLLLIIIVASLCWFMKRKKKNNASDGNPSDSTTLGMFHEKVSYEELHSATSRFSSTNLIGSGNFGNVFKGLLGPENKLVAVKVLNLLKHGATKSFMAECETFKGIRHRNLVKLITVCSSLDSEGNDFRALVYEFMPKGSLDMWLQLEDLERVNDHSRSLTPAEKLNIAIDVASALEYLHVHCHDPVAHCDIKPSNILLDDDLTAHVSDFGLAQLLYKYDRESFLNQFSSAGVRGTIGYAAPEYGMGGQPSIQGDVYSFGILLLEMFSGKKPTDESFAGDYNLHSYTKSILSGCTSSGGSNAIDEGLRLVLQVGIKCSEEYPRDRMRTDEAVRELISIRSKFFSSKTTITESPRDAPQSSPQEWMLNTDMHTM

Biological target: EF-Tu receptor (EFR) (UniProt C0LGT6)
Experiment: retained luminescence of an acridinium-labelled peptide on plant tissue

ICDINGVCVDA (acridinium on the N-terminus) [acridinium-Vu-In (N-terminal acridinium-tagged Vu-In conjugate)]
binding: no binding
